The values that follow come from article PMC5645319 (Scientific Reports, 2017).

Data set [1] can be described thus: general procedure: Fmoc solid-phase peptide synthesis; Rink Amide MBHA resin; PyBOP/DIPEA. The following applies: conjugation step.
Data set [2] in a line: general procedure: Fmoc solid-phase peptide synthesis; Rink Amide MBHA; PyBOP/DIPEA. Particulars: whole synthesis.

With “DOTA-Lys(EtTNBS)-Lys(NH2)-β-Ala-Lys(DBCO-PEG4-cRGD)-NH2”, the conjugation yield in data set [1] is given as ~99%.
In data set [2], “Dota-Lys(EtNBS)-Lys(NH2)-β-Ala-Lys(N3)NH2” yielded an isolated yield of 14.5%.
In data set [1] (cyclic, sequence written open), “DOTA-Lys(EtNBS)-Lys(PEG-5KDa)-β-Ala-Lys(DBCO-PEG4-cRGD)” had a conjugation yield of 50%.
